# Reference: paper doi:10.1101/2020.03.26.010314
# By UniProt entry, the sequences of proteins in these tests, tags left out. Residues count along the entry.
# UniProt D3YZU1: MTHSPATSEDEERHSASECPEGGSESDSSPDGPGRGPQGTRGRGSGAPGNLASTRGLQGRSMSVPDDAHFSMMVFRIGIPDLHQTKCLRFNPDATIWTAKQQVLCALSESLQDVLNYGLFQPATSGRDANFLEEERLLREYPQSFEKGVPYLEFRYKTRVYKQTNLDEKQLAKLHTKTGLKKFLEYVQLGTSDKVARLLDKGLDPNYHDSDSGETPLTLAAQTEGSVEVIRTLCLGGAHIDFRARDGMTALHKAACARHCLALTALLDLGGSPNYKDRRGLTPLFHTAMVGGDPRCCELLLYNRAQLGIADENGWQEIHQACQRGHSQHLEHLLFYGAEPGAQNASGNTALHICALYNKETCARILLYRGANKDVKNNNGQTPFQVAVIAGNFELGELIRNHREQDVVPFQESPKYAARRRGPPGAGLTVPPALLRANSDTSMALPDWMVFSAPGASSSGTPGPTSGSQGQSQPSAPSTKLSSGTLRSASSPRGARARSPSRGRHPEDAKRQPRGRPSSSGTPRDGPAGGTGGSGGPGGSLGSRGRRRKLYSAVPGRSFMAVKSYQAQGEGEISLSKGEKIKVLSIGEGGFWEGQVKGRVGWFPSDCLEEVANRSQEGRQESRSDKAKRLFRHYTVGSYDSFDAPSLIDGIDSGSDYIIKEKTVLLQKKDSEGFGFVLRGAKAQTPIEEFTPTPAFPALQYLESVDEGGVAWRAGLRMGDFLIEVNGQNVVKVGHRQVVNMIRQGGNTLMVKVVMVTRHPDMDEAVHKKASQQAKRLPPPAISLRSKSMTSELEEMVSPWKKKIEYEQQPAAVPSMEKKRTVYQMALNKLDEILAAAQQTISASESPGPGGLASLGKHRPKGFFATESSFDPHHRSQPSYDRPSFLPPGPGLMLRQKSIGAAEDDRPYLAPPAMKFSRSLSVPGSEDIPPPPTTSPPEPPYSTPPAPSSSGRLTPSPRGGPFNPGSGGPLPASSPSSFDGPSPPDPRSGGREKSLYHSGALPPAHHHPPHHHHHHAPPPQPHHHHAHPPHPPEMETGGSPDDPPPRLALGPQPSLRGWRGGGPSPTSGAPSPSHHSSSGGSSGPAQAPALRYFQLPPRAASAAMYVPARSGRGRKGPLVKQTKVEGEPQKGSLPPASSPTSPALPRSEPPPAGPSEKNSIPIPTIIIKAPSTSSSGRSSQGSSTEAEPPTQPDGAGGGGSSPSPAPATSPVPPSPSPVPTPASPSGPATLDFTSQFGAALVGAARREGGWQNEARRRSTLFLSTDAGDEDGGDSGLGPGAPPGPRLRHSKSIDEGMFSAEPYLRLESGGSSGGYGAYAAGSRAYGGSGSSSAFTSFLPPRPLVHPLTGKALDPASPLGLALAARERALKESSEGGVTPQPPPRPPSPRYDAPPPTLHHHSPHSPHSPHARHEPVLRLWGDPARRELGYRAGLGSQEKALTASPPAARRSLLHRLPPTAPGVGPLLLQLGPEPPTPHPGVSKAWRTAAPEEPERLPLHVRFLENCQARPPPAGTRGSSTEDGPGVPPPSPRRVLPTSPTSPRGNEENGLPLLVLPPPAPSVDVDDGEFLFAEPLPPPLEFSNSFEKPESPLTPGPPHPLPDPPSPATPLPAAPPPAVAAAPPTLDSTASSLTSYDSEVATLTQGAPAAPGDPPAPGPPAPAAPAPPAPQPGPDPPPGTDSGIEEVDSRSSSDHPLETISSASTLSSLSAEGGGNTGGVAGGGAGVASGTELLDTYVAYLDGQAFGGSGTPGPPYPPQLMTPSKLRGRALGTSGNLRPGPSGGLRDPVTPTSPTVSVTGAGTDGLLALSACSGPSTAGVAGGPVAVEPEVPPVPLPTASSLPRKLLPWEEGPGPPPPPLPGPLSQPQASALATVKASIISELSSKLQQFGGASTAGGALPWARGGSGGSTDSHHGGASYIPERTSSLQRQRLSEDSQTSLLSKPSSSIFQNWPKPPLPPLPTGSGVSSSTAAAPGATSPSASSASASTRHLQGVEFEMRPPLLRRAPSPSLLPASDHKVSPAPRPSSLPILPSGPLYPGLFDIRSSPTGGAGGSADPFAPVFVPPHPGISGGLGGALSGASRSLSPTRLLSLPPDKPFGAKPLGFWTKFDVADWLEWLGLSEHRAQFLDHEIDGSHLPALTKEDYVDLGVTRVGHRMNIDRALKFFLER
# UniProt Q01097, residues 27-1482: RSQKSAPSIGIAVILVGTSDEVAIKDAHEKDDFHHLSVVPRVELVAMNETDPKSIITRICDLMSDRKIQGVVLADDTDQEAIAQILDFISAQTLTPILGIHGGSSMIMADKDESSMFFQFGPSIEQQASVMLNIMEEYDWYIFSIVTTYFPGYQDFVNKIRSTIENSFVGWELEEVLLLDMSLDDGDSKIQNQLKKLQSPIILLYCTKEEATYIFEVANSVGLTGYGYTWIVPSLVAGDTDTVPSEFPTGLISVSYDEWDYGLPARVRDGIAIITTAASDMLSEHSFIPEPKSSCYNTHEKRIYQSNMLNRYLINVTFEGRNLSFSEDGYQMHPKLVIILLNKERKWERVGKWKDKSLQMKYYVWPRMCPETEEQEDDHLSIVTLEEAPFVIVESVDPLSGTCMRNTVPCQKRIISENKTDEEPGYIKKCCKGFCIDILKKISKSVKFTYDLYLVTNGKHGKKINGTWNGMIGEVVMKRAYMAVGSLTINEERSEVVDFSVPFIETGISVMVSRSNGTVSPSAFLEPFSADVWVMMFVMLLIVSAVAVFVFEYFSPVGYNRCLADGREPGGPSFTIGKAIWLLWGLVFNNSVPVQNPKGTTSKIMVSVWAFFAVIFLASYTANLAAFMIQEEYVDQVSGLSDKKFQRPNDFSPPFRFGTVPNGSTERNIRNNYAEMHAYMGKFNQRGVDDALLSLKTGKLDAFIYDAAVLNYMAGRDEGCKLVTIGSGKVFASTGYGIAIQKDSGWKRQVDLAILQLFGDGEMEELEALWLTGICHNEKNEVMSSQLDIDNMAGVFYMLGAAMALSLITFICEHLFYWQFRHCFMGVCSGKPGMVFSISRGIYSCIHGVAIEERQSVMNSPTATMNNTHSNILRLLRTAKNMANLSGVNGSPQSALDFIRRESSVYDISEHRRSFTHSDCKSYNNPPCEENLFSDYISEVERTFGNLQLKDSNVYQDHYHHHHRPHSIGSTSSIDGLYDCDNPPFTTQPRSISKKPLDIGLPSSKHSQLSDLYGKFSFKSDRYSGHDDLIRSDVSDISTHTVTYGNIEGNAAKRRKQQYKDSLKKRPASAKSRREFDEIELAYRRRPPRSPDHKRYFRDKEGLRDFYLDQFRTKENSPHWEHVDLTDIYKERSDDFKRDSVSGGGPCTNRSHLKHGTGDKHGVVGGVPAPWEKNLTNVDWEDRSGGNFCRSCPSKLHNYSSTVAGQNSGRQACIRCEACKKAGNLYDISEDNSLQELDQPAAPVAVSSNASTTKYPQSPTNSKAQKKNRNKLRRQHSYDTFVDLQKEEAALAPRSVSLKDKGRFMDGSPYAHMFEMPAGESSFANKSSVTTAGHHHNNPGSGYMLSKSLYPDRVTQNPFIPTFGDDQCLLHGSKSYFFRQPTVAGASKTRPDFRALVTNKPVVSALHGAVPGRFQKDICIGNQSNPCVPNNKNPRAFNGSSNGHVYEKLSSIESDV
# UniProt Q3UVX5, residues 19-1203: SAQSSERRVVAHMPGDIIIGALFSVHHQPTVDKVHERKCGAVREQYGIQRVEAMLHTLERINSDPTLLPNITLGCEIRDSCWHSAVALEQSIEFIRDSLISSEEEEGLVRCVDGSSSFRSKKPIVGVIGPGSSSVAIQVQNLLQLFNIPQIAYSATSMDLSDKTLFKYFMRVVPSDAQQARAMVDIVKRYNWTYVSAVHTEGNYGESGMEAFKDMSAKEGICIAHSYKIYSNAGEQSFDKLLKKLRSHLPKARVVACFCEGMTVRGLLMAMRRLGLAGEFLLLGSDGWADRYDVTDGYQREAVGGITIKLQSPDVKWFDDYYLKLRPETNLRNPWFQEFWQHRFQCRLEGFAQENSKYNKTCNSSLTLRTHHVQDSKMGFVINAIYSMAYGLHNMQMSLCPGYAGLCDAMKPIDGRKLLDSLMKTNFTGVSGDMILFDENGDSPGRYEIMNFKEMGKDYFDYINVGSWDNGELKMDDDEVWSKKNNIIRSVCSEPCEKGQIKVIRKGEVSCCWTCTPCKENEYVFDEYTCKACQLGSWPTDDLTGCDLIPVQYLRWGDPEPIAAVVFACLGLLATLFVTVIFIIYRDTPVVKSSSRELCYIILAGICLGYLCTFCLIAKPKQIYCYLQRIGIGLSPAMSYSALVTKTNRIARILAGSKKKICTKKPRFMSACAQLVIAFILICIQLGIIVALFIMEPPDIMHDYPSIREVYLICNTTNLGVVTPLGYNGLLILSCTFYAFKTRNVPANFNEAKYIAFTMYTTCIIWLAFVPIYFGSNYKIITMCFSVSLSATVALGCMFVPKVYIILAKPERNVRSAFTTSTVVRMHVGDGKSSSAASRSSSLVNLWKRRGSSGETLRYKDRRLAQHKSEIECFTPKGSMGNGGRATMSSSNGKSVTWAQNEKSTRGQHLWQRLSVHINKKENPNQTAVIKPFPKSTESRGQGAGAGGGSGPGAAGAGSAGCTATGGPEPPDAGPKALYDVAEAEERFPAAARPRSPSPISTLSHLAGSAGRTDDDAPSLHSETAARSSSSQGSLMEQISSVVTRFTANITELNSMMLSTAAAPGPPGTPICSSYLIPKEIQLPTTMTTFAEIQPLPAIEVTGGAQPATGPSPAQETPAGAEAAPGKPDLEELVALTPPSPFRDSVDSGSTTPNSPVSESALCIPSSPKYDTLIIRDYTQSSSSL
# UniProt P39688: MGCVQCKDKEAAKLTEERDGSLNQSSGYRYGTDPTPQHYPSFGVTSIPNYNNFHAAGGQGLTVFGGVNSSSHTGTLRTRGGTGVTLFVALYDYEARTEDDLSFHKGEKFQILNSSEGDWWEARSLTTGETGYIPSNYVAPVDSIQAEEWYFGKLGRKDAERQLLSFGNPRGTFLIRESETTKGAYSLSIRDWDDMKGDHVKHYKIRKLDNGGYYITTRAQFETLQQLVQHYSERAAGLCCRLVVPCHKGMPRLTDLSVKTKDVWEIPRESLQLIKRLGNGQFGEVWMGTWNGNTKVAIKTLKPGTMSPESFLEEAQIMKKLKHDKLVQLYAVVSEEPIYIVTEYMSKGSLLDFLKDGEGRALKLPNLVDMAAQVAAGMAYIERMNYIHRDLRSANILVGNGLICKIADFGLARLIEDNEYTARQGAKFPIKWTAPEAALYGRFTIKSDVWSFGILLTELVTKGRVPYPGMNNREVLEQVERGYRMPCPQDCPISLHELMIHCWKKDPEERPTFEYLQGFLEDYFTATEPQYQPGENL
# UniProt Q3UHD9: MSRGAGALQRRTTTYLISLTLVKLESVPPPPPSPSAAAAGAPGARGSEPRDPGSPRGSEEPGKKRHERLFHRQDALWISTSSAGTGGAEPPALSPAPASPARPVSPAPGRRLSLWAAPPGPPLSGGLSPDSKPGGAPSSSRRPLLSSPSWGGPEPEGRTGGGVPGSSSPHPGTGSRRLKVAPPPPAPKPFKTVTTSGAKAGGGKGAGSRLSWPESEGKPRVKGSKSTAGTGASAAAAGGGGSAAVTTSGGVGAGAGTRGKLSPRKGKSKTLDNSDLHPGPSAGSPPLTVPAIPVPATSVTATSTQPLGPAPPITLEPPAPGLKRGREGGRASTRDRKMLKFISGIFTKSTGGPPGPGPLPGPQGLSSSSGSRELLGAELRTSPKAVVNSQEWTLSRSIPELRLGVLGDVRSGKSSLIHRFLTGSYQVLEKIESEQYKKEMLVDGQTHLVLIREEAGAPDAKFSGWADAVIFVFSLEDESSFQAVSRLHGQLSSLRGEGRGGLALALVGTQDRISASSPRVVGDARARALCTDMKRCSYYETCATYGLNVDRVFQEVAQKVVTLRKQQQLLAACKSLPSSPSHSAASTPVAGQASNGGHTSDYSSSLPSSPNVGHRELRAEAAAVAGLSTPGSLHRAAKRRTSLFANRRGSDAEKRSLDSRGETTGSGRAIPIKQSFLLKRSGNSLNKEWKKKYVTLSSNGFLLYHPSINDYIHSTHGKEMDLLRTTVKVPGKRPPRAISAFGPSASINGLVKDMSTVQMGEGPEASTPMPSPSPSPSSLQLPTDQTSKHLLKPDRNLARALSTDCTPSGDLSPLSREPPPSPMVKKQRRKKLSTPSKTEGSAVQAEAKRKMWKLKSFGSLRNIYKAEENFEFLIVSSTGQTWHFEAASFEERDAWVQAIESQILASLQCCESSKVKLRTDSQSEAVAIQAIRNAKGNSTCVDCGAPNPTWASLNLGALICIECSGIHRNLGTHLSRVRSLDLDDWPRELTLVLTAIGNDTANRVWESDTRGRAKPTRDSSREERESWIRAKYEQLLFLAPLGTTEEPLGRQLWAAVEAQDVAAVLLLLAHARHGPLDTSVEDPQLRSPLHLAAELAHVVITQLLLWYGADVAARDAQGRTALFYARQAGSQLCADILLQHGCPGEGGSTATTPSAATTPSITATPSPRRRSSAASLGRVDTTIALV
# Read-outs that look alike come from different tables or passages of the source. These are yes or no findings as the source states them, for the method shown. Binding seen in cells or lysates may run through a third protein. Some results given as binding are weak or reduced against the parent protein; the word gives no strength.
# Columns and labels:
# Assay in all cases: co-IP
# [1] = biological target: Shank1 (mouse (endogenous in cultured cortical neurons and barrel cortex)) (UniProt D3YZU1)
# [2] = biological target: T1, E3 ubiquitin ligase Ube3a (mouse (endogenous in cultured cortical neurons and barrel cortex)) (UniProt O08759)
# T1 sequence: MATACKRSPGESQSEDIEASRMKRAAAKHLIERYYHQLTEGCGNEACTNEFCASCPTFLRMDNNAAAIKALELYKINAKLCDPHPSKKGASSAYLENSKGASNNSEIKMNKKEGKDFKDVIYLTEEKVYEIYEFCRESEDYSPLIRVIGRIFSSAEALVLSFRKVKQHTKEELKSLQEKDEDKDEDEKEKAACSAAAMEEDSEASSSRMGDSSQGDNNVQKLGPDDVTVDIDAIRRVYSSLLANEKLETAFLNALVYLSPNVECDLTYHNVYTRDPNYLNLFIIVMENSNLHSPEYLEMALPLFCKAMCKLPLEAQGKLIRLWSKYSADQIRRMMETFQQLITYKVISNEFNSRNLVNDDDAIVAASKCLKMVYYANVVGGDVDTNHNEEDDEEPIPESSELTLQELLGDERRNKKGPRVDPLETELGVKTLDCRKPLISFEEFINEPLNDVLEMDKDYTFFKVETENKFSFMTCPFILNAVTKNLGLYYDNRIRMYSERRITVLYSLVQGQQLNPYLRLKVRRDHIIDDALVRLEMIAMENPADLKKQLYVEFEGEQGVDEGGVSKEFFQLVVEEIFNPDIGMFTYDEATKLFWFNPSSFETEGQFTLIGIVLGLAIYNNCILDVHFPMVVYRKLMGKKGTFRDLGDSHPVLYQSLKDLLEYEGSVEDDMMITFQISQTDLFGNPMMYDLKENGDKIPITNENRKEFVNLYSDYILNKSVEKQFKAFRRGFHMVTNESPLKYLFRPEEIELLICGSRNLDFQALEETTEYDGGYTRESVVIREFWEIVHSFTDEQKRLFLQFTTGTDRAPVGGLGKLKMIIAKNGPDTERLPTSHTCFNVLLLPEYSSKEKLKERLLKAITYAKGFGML
# [3] = biological target: NMDAR2A (mouse (endogenous in cultured cortical neurons and barrel cortex)) (UniProt P35436)
# [4] = biological target: NMDAR2B (mouse (endogenous in cultured cortical neurons and barrel cortex)) (UniProt Q01097)
# [5] = biological target: metabotropic glutamate receptor mGluR5 (mouse (endogenous in cultured cortical neurons and barrel cortex)) (UniProt Q3UVX5)
# [6] = biological target: NL3 (mouse (endogenous in barrel cortex)) (UniProt Q8BYM5)
# [7] = biological target: T2, Homer1 (mouse (endogenous in cultured cortical neurons and barrel cortex)) (UniProt Q9Z2Y3)
# T2 sequence: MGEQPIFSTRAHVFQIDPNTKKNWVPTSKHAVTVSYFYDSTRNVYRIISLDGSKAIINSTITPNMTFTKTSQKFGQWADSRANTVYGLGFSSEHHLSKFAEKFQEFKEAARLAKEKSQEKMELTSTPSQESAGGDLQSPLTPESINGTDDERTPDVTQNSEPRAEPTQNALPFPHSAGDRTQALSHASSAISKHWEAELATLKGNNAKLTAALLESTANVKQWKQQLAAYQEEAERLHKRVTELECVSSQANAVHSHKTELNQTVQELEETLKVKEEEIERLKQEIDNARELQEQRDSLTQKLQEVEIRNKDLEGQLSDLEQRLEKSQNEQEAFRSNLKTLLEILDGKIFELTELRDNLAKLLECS
# [8] = biological target: T3, E3 ubiquitin ligase Ube3a (mouse (endogenous in cultured cortical neurons and barrel cortex)), O08759; settings: remark: other sources report otherwise
# T3 chain: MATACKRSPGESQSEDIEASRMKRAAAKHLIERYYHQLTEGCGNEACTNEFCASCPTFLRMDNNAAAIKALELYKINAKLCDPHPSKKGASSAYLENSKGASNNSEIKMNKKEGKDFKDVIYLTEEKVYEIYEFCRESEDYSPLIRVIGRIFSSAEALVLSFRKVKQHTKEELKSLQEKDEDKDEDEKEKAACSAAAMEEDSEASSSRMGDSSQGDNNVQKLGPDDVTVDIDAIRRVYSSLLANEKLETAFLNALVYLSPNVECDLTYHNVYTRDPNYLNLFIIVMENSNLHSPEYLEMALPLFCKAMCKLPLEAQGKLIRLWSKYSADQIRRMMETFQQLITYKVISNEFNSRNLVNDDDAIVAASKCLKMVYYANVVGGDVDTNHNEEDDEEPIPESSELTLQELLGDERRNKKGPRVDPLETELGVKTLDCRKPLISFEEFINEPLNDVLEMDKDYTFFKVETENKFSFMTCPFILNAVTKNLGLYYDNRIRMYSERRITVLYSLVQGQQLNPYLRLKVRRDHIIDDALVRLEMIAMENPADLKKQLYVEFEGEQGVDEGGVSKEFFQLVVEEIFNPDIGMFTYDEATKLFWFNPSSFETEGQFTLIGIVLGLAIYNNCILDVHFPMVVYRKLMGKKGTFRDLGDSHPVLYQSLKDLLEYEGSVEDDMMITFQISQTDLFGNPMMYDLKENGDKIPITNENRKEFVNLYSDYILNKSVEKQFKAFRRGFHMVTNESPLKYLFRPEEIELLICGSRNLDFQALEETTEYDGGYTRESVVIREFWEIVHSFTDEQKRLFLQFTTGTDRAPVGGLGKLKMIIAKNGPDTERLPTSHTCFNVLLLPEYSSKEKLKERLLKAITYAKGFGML
# [9] = biological target: metabotropic glutamate receptor mGluR5 (mouse (endogenous in cultured cortical neurons and barrel cortex)) (UniProt Q3UVX5); remark: listed apart in the source
molecule,measurement,setting,value
NMDAR2B (from UniProt Q01097 27-1482) (receptor),binding,[1],binds
Fyn kinase (from UniProt P39688 1-537) (enzyme),binding,[2],binds
same,binding,[3],binds
same,binding,[4],binds
same,binding,[1],binds
same,binding,[5],binds
PIKE (from UniProt Q3UHD9 1-1186),binding,[6],binds
NL3 (from UniProt Q8BYM5 35-825),binding,[3],binds
Shank3 (from UniProt Q4ACU6 1-1730),binding,[7],binds
"E3 ubiquitin ligase Ube3a, O08759 1-870 (enzyme) MATACKRSPGESQSEDIEASRMKRAAAKHLIERYYHQLTEGCGNEACTNEFCASCPTFLRMDNNAAAIKALELYKINAKLCDPHPSKKGASSAYLENSKGASNNSEIKMNKKEGKDFKDVIYLTEEKVYEIYEFCRESEDYSPLIRVIGRIFSSAEALVLSFRKVKQHTKEELKSLQEKDEDKDEDEKEKAACSAAAMEEDSEASSSRMGDSSQGDNNVQKLGPDDVTVDIDAIRRVYSSLLANEKLETAFLNALVYLSPNVECDLTYHNVYTRDPNYLNLFIIVMENSNLHSPEYLEMALPLFCKAMCKLPLEAQGKLIRLWSKYSADQIRRMMETFQQLITYKVISNEFNSRNLVNDDDAIVAASKCLKMVYYANVVGGDVDTNHNEEDDEEPIPESSELTLQELLGDERRNKKGPRVDPLETELGVKTLDCRKPLISFEEFINEPLNDVLEMDKDYTFFKVETENKFSFMTCPFILNAVTKNLGLYYDNRIRMYSERRITVLYSLVQGQQLNPYLRLKVRRDHIIDDALVRLEMIAMENPADLKKQLYVEFEGEQGVDEGGVSKEFFQLVVEEIFNPDIGMFTYDEATKLFWFNPSSFETEGQFTLIGIVLGLAIYNNCILDVHFPMVVYRKLMGKKGTFRDLGDSHPVLYQSLKDLLEYEGSVEDDMMITFQISQTDLFGNPMMYDLKENGDKIPITNENRKEFVNLYSDYILNKSVEKQFKAFRRGFHMVTNESPLKYLFRPEEIELLICGSRNLDFQALEETTEYDGGYTRESVVIREFWEIVHSFTDEQKRLFLQFTTGTDRAPVGGLGKLKMIIAKNGPDTERLPTSHTCFNVLLLPEYSSKEKLKERLLKAITYAKGFGML",binding,[8],binds
"Homer1 (protein, UniProt Q9Z2Y3 1-366) MGEQPIFSTRAHVFQIDPNTKKNWVPTSKHAVTVSYFYDSTRNVYRIISLDGSKAIINSTITPNMTFTKTSQKFGQWADSRANTVYGLGFSSEHHLSKFAEKFQEFKEAARLAKEKSQEKMELTSTPSQESAGGDLQSPLTPESINGTDDERTPDVTQNSEPRAEPTQNALPFPHSAGDRTQALSHASSAISKHWEAELATLKGNNAKLTAALLESTANVKQWKQQLAAYQEEAERLHKRVTELECVSSQANAVHSHKTELNQTVQELEETLKVKEEEIERLKQEIDNARELQEQRDSLTQKLQEVEIRNKDLEGQLSDLEQRLEKSQNEQEAFRSNLKTLLEILDGKIFELTELRDNLAKLLECS",binding,[9],binds
